Data as given in the supplement of paper PMC12819154, “High-throughput peptide-centric local stability assay extends protein–ligand identification to membrane proteins, tissues and bacteria” (Nature Structural & Molecular Biology, 2025).
This is one part of the list. Most values lie at the level of the controls, where differences are scatter.

Chains of the proteins cited; added tags and fusions are not shown. Lines headed by an entry give the natural chain unless they say otherwise; changes in a name come on top.
UniProt Q9CPP6: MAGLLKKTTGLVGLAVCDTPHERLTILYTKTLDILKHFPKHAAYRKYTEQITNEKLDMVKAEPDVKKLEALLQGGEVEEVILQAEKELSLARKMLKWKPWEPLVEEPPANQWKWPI
UniProt Q99NH2, whole entry: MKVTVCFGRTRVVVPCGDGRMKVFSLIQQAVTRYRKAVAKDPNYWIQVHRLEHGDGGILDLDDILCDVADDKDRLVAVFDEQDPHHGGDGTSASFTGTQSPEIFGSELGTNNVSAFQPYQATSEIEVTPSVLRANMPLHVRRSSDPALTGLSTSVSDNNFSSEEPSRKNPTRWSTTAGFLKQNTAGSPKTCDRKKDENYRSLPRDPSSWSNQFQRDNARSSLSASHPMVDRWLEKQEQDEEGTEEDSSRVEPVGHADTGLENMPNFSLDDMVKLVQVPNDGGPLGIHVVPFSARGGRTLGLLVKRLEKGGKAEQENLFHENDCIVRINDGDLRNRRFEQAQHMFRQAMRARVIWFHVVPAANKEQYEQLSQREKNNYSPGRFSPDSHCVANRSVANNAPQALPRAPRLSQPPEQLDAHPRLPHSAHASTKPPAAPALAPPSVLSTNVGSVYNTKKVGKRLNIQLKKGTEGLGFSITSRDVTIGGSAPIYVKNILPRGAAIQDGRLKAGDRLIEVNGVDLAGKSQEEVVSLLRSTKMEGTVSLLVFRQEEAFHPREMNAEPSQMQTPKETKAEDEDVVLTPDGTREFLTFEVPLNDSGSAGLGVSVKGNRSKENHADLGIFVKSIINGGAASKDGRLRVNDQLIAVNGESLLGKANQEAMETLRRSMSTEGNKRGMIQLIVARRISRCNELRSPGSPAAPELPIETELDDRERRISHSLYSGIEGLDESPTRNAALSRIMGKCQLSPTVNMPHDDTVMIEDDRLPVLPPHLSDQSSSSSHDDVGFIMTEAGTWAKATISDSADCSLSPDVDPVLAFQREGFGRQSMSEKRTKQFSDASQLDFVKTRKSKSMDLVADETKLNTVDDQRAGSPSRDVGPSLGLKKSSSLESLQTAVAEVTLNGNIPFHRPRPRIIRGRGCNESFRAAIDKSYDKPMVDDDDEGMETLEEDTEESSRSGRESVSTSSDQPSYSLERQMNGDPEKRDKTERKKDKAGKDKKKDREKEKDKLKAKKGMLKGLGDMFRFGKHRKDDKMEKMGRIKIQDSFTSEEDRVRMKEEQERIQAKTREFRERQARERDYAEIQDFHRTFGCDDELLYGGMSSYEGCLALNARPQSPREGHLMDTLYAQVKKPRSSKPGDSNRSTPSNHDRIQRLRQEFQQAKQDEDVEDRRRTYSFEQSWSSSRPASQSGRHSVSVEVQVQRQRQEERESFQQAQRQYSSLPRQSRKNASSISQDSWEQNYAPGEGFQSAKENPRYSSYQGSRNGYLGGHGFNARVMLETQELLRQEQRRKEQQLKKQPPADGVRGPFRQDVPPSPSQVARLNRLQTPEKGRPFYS
UniProt Q99JW2: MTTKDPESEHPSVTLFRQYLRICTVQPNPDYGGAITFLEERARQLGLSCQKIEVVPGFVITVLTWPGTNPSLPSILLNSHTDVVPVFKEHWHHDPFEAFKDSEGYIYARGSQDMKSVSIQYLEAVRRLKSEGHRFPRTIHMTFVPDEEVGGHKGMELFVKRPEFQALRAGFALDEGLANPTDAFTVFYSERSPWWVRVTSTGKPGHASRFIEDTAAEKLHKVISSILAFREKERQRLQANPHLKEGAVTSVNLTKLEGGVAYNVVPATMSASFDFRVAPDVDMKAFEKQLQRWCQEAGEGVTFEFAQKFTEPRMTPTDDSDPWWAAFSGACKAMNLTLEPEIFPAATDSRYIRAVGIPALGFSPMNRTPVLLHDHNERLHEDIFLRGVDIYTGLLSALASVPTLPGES
UniProt Q99KE1: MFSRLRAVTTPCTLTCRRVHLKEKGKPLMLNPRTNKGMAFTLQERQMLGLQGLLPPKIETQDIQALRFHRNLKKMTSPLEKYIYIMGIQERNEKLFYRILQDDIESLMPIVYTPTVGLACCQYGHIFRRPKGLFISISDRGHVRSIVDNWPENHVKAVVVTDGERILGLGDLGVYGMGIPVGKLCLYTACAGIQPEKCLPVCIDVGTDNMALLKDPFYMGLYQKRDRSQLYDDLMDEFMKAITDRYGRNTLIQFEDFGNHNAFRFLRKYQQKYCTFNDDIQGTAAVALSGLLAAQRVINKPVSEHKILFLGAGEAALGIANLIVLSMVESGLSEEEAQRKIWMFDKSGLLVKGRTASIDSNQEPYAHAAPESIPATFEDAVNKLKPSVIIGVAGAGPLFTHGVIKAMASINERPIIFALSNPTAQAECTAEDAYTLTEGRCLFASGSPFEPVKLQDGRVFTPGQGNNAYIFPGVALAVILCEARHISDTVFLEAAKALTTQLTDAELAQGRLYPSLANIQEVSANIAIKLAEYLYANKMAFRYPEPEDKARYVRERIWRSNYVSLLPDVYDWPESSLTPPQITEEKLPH
UniProt Q9CXJ4: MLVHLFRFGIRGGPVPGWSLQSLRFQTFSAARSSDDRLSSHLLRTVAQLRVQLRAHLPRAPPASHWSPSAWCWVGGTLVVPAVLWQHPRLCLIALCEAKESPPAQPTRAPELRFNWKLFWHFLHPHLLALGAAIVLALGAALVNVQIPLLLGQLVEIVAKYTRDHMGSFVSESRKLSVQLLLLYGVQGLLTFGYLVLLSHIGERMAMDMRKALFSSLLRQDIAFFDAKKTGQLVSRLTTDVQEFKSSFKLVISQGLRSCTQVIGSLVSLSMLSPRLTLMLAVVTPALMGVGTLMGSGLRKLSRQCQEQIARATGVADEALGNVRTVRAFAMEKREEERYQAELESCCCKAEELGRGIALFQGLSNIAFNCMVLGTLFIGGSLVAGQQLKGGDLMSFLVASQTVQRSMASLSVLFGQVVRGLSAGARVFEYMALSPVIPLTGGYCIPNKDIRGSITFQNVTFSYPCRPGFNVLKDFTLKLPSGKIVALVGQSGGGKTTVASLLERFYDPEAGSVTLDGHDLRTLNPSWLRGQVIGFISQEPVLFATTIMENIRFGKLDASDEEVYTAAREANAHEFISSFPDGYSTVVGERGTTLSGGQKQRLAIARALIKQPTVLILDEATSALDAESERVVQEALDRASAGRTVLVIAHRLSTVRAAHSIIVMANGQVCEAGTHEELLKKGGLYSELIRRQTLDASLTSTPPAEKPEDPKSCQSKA
UniProt Q99L13: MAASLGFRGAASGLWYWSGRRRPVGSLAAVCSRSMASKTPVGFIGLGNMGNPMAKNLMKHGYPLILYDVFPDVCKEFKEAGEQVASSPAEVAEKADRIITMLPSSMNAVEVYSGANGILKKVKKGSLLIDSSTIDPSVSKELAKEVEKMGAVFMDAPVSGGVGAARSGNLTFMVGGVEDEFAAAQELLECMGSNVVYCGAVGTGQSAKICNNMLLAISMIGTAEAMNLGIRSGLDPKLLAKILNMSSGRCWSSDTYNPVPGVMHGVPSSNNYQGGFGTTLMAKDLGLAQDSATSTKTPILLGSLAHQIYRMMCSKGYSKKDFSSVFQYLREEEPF
UniProt Q99JY0: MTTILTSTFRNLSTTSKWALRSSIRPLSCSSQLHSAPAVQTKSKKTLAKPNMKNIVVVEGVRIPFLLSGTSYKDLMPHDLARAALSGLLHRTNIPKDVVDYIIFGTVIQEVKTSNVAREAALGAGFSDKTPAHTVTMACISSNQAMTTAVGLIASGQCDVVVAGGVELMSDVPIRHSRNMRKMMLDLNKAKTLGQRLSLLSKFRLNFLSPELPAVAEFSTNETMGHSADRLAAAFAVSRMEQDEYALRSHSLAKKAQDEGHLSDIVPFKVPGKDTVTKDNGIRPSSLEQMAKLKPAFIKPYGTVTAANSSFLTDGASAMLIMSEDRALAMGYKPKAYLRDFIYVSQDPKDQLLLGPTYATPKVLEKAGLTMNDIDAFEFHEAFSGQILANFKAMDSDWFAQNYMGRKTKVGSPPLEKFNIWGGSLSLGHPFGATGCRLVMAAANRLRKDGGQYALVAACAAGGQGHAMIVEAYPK
UniProt Q9CXF0: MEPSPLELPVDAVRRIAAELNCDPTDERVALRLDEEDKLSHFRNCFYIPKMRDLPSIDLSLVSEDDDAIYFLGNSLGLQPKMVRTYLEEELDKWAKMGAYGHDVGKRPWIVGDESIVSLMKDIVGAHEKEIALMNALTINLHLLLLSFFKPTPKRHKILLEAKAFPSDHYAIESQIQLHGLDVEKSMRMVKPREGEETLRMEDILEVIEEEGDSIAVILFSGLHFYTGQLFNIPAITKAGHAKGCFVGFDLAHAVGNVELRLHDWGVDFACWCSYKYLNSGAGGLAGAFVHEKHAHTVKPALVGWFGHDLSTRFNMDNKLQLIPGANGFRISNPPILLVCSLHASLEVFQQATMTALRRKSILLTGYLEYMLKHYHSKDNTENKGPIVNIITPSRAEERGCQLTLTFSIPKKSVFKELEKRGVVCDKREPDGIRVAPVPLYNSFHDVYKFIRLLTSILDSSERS
UniProt Q99L45, whole entry: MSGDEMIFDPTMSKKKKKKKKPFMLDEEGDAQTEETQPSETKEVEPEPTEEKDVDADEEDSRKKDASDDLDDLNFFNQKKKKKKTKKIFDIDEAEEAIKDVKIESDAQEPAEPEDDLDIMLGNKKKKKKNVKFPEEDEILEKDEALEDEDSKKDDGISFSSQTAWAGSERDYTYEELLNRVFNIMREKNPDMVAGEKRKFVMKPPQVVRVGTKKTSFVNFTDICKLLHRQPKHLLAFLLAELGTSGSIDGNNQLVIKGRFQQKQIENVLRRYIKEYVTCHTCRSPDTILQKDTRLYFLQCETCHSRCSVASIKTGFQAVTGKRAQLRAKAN
UniProt Q9CQV1: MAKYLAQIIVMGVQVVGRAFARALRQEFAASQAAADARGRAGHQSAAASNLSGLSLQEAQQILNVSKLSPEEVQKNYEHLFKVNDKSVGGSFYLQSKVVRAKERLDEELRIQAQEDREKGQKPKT
UniProt Q9CR13: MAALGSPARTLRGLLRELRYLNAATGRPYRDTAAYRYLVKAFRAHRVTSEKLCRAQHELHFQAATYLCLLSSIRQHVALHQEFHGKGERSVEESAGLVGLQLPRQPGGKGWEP
UniProt Q9CQJ8: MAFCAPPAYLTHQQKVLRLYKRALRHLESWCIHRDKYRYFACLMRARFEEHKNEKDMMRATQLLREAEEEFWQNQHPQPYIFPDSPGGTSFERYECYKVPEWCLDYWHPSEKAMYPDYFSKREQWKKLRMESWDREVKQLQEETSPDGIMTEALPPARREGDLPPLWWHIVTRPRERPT
UniProt Q9CQG1: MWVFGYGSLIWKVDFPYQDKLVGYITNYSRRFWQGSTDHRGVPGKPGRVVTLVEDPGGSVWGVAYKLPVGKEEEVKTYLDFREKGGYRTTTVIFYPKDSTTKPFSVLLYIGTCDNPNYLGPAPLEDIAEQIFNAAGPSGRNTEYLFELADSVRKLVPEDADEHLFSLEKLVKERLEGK
UniProt Q9CQ86: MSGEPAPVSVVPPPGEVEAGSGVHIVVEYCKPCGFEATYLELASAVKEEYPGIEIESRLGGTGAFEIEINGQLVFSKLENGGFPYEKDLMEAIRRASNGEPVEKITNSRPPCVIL
UniProt Q9CWK8: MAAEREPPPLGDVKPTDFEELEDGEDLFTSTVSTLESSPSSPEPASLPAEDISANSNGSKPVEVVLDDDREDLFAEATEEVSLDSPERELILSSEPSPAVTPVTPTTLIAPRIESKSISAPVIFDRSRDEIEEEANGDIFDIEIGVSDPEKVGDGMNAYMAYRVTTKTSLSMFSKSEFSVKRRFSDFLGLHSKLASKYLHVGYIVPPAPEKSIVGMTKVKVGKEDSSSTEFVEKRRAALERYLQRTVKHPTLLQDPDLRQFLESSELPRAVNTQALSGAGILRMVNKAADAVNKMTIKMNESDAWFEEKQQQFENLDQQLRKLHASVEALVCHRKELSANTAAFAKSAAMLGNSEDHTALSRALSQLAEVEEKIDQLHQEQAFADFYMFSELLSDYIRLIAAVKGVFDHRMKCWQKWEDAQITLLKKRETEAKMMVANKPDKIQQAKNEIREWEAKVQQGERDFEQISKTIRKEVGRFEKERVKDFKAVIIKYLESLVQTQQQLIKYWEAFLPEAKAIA
UniProt Q9CX56: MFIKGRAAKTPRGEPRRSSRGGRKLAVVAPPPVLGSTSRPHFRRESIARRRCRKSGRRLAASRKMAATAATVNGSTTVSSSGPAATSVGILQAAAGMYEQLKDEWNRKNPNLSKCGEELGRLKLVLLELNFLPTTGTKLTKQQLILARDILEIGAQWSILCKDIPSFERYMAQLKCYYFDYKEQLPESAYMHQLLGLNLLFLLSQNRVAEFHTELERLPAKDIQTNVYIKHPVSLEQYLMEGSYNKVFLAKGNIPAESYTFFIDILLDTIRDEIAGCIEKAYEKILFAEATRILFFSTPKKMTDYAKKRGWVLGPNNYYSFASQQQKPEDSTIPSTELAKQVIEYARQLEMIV
UniProt Q9CRB9: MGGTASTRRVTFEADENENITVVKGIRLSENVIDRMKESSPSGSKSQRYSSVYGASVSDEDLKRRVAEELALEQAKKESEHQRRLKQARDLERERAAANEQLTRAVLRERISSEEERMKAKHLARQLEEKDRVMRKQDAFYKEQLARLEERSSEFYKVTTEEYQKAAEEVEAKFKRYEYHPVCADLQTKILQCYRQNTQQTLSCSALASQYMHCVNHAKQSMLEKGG

compound: CN[C@@H]1C[C@H]2O[C@@](C)([C@@H]1OC)n1c3ccccc3c3c4c(c5c6ccccc6n2c5c31)C(=O)NC4 [staurosporine]; experiment: log2 fold change of pooled soluble protein (PISA), ligand vs vehicle (log2 ratio); higher = more thermally stabilized; details: ligand concentration: 20 uM; assay format: PISA pool 52.9/55.5/58.6 C

Target	log2 fold change of pooled soluble protein
UniProt Q9CPP6	0.0801
UniProt Q99NH2	-0.0279
UniProt Q99JW2	0.00624
UniProt Q9CQC9	-0.266
UniProt Q99JY3	-0.00117
UniProt Q99KE1	-0.12
UniProt Q9CXJ4	-0.0664
UniProt Q99L13	-0.12
UniProt Q99JY0	-0.151
UniProt Q9CRC6	-0.41
UniProt Q99K74	0.0391
UniProt Q9CXF0	0.0356
UniProt Q9CQW1	-0.0841
UniProt Q9CPS6	0.000237
UniProt Q99L45	-0.0284
UniProt Q99KQ4	0.0354
UniProt Q9CW42	0.293
UniProt Q9CQV1	-0.0156

2 successive records already listed, quoted:
Target	log2 fold change of pooled soluble protein
UniProt Q99JY0	-0.151
UniProt Q9CRC6	-0.41

Next records follow:

Target	log2 fold change of pooled soluble protein
UniProt Q9CR13	0.247
UniProt Q9CPQ1	-0.252
UniProt Q99JZ7	-0.00175
UniProt Q9CSU0	0.0148
UniProt Q9CQJ8	-0.297
UniProt Q99MU3	-0.161
UniProt Q9CQG1	0.0509
UniProt Q9CQ86	0.133
UniProt Q9CWK8	-0.000395
UniProt Q9CX56	-0.114
UniProt Q99LB6	-0.139
UniProt Q9CPT4	-0.0945
UniProt Q9CQN1	0.0879
UniProt Q9CVB6	0.00556
UniProt Q9CQ85	0.0406
UniProt Q9CRB9	-0.0535
UniProt Q9CQ62	0.00683
UniProt Q99KH8	0.469
